Patent US6982315 (dated 2006)

Assay: general procedure: Fmoc solid-phase peptide synthesis; TCP (trityl chloride-polystyrene) resin; triphosgene (BTC)/collidine/DIEA; in some couplings HOAt/DIC or HATU/DIEA
Details: for cyclisation yield: cyclisation step

Fmoc-MeLeu-MeLeu-MeVal-MeLeu-OH
crude HPLC purity (whole synthesis, UV 214 nm): over 99%

H-Nva-Sar-MeLeu-Val-MeLeu-Ala-D-Ala-MeLeu-MeLeu-MeVal-MeLeu-(TCP resin)
cyclisation yield: about 75 to 80% | cyclisation yield (on linear precursor): 82.4% | step yield (purification step, of the crude product): 35.7% | isolated yield (whole synthesis, on first resin loading): 14.9% | crude yield (whole synthesis, overall): 41.8%

MeLeu-MeLeu-MeVal-MeLeu
purity (crude or final not stated) (whole synthesis, HPLC (214 nm)): over 98%
